Earlier results as cited in patent US20080045610A1, “Methods for regulating neurotransmitter systems by inducing counteradaptations” (priority 2004, published 2008).
At least one read-out could not be matched to a standard name with certainty.

Settings: 6-methylene analogue versus naltrexone

Question: With C=C1CC[C@@]2(O)[C@H]3Cc4ccc(O)c5c4[C@@]2(CCN3CC2CC2)[C@H]1O5 [nalmefene] as the compound, how does the “bioavailability compared with naltrexone” value read?
Answer: greater bioavailability
